Laboratory results reported in US9789101B2, “Methods and compositions for treating microbial infection using pyrroloquinone” (HELPERBY THERAPEUTICS LIMITED, priority 2010, dated 2017).
At least one compound was matched to its structure with a doubt left.

System: clinically latent microorganisms
Experiment: Screening for ability to kill clinically latent microorganisms (method of WO2000028074)
Type: cell-based
Conditions: observed by the Applicant
Source text: International Patent Application, Publication Number WO2000028074 describes a method of screening compounds to determine their ability to kill clinically latent microorganisms. […] This observation has necessitated the development of novel antimicrobials which may be used to kill clinically latent microorganisms.
By way of example, WO2000028074 describes a suitable method of screening compounds to determine their ability to kill clinically latent microorganisms. A typical method may include the following steps: • (1) growing a bacterial culture to stationery phase; • (2) treating the stationery phase culture with one or more antimicrobial agents at a concentration and or time sufficient to kill growing bacteria, thereby selecting a phenotypically resistant sub-population; • (3) incubating a sample of the phenotypically resistant subpopulation with one or more test compounds or agents; and • (4) assessing any antimicrobial effects against the phenotypically resistant subpopulation.

`C[C@H]1COc2c(N3CCN(C)CC3)c(F)cc3c(=O)c(C(=O)O)cn1c23` [levofloxacin] was tested, and the “activity against clinically latent microorganisms” value was “little or no activity”.
